Laboratory results taken from paper PMC6448480, “A Two-Way Proteome Microarray Strategy to Identify Novel Mycobacterium tuberculosis-Human Interactors” (Frontiers in Cellular and Infection Microbiology, 2019).
These are yes or no findings as the source states them, for the method shown. For part of these data: In cells and extracts the contact can be indirect. Some entries that bind do so weakly or less than the wild type. For part of these data: Tags and fused reporters may be left off the sequences shown.

By UniProt entry, the sequences of proteins in these tests, tags left out.
UniProt P71925: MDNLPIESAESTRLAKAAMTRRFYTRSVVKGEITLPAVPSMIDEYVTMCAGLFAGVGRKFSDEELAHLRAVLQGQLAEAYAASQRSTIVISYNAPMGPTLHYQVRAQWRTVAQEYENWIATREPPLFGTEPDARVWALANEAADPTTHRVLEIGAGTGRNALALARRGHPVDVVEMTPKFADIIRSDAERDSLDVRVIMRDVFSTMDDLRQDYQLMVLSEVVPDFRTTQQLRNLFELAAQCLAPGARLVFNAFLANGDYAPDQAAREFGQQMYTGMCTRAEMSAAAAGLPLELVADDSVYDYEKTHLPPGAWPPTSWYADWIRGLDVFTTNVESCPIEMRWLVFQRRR
UniProt O33252: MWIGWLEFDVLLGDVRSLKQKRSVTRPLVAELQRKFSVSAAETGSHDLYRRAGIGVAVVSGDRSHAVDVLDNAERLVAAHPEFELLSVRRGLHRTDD
UniProt I6Y9H2: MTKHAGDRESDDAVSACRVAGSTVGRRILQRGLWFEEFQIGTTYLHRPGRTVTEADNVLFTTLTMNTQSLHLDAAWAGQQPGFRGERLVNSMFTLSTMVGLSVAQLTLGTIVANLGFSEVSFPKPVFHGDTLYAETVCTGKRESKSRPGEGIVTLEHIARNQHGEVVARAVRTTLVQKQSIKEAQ
UniProt Q15796: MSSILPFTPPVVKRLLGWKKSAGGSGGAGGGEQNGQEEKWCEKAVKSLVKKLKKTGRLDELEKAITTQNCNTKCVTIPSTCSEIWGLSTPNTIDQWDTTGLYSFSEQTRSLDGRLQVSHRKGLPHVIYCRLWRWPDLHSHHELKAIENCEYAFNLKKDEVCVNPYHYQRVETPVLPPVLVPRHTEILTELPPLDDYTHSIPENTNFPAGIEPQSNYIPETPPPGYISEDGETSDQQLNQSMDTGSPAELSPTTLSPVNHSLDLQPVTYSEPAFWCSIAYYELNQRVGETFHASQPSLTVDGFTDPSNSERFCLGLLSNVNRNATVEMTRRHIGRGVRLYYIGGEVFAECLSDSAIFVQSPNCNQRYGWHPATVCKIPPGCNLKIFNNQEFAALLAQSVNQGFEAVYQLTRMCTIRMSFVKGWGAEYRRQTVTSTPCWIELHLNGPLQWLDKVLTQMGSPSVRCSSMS

Legend:
[1] = target: His tagged Rv2423 (Mycobacterium tuberculosis) (UniProt P71925); assay: pull-down; His tagged Mtb proteins incubated with lysate of PMA-differentiated THP-1 cells (HEPES lysis buffer pH 7.5, 150 mM NaCl, 1% TritonX-100); detection by automated capillary electrophoresis (Simple Western); only the target purified
[2] = target: T1, His tagged Rv0577 (Mycobacterium tuberculosis) (UniProt P9WIR3); assay: as above
T1 sequence: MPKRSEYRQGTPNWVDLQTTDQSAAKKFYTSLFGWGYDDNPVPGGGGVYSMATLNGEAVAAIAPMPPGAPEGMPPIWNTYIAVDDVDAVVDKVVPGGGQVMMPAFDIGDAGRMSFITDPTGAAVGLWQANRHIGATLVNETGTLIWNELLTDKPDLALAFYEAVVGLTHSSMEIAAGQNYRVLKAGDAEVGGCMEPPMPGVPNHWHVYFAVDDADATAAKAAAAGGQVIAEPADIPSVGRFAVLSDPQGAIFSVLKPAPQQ

[3] = target: His tagged Rv2117 (Mycobacterium tuberculosis) (UniProt O33252); assay: as above
[4] = target: Rv2117 (Uncharacterized protein) on the Mtb proteome microarray (Mycobacterium tuberculosis (array of proteins from strains H37Rv and CDC1551)) (UniProt O33252); assay: peptide or protein array; both purified
[5] = target: Rv2499c (Possible oxidase regulatory-related protein) on the Mtb proteome microarray (Mycobacterium tuberculosis (array of proteins from strains H37Rv and CDC1551)) (UniProt I6Y9H2); assay: peptide or protein array; both purified
[6] = target: Rv2423 (Methyltransferase type 12) on the Mtb proteome microarray (Mycobacterium tuberculosis (array of proteins from strains H37Rv and CDC1551)) (UniProt P71925); assay: peptide or protein array; both purified

Measured: binding

endogenously expressed SMAD2 (THP-1) (from UniProt Q15796 1-467)
binds: [1] | [2] | [3]

myc-tagged SMAD2 (from UniProt Q15796 1-467)
binds: [4] | [5] | [6]
